# Source: the supplement of paper PMC12067093, “Discovery and optimisation of a covalent ligand for TRIM25 and its application to targeted protein ubiquitination” (Chemical Science, 2025)
# The chains behind the UniProt entries cited, without tags or fusion partners. Where a name states a change or a piece, a line headed by the entry shows the natural chain unless it says otherwise.
# UniProt Q15061: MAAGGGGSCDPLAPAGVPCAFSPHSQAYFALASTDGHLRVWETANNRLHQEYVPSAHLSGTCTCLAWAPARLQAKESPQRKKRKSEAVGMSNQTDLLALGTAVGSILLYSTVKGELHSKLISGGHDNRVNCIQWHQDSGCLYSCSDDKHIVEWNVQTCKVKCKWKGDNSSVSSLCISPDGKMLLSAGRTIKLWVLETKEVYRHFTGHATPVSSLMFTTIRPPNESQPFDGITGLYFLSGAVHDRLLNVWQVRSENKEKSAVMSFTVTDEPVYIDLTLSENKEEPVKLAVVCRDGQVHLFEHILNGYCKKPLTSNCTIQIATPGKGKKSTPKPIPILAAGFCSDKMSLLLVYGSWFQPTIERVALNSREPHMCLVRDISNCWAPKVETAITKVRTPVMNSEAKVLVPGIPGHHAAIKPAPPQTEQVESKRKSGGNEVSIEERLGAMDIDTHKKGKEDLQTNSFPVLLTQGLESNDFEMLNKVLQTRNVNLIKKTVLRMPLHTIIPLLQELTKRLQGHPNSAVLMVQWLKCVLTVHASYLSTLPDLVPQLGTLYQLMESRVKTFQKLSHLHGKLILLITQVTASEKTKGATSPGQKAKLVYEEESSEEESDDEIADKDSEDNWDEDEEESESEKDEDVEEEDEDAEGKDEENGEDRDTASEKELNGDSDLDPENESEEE
# UniProt Q9NNW5: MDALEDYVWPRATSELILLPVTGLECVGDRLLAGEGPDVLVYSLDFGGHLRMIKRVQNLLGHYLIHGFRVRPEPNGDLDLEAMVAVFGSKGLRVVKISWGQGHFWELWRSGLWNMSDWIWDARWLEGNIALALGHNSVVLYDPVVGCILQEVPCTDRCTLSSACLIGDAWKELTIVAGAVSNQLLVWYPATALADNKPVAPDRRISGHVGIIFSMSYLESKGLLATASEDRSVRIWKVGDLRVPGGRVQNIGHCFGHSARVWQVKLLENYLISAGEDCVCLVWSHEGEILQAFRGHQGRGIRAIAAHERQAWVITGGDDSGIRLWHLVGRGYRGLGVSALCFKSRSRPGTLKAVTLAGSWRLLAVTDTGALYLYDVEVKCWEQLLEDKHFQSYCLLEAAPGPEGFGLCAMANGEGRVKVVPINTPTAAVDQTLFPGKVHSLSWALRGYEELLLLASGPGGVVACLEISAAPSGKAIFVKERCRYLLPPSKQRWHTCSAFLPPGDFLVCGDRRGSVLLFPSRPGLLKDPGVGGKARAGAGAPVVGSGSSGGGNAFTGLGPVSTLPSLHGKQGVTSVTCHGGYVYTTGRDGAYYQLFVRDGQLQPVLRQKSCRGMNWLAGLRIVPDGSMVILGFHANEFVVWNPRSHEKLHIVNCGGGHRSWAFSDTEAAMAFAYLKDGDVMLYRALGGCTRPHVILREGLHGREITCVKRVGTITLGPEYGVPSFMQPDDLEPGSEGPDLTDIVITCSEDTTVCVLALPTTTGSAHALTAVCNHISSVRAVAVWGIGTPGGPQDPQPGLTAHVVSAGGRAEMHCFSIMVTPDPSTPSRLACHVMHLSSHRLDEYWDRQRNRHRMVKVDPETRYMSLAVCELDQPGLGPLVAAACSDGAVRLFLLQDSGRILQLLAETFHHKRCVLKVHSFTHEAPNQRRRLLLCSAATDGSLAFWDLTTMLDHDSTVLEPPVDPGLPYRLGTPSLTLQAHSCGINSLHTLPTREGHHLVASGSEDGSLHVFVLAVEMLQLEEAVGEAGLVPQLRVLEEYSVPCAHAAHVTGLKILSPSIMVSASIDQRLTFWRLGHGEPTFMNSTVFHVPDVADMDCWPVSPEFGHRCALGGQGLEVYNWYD
# This is one part of the list.
# Key:
# [1] = target: WDR43_Q15061_158_HIVEWNVQTCK (UniProt Q15061); test: probe-labelled cysteine peptide fold change vs DMSO (competition) (log2 fold change); higher = less target engagement (more negative = stronger competition); conditions: THP-1, incubation time: 4 h
# [2] = target: WDR6_Q9NNW5_653_LHIVNCGGGHR (UniProt Q9NNW5); test: as above; conditions: THP-1, incubation time: 4 h
# 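Note: competitive chemoproteomic profiling in live THP-1 cells with an iodoacetamide desthiobiotin (IA-DTB) probe, comparing probe-labelled peptide intensities in compound-treated cells against DMSO-treated controls.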
smiles,measurement,setting,value
CC1Cc2ccccc2N1C(=O)C1CCCN(C(=O)CCl)C1 (mixture of isomers) [TRIM25 ligand 11 (diastereomer mixture)],probe-labelled cysteine peptide fold change,[1]; 10 µM,0.0869
same,probe-labelled cysteine peptide fold change,[1]; 50 µM,0.135
same,probe-labelled cysteine peptide fold change,[2]; 10 µM,-0.043
same,probe-labelled cysteine peptide fold change,[2]; 50 µM,0.18
